# Assay results taken from the supplement of paper PMC11438910.
# This is one part of the list. Only a few entries rise above the background.
# How the values were obtained:
# Assay in all cases: fluorescence intensity of antibody binding to polysaccharide-coupled beads; higher = stronger binding
# [1] = target: pneumococcal polysaccharide Pn38
# Procedure: (§1)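 Recombinant rhesus-murine chimeric IgG1 antibodies were tested against antigen-coupled MagPlex beads in a 96-plex Luminex direct immunoassay (dLIA). The beads carried pneumococcal capsular polysaccharides of 93 serotypes plus C-polysaccharides. Antibody was added at 0.1–12,500 ng/mL for 1 h, then PE anti-mouse IgG, and net MFI was read on a Bio-Plex 3D. Only the rhesus variable regions are printed; constant regions are murine IgG1/kappa/lambda, and the signal peptide is MGWSCIILFLVATATGVHS.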
# [2] = target: pneumococcal polysaccharide Pn39
# Procedure: as §1
# [3] = target: pneumococcal polysaccharide Pn4
# Procedure: as §1
# [4] = target: pneumococcal polysaccharide Pn40
# Procedure: as §1
# [5] = target: pneumococcal polysaccharide Pn41A
# Procedure: as §1
# [6] = target: pneumococcal polysaccharide Pn41F
# Procedure: as §1
# [7] = target: pneumococcal polysaccharide Pn42
# Procedure: as §1
# [8] = target: pneumococcal polysaccharide Pn43
# Procedure: as §1
# [9] = target: pneumococcal polysaccharide Pn44
# Procedure: as §1
# [10] = target: pneumococcal polysaccharide Pn45
# Procedure: as §1
# [11] = target: pneumococcal polysaccharide Pn46
# Procedure: as §1
# [12] = target: pneumococcal polysaccharide Pn47A
# Procedure: as §1
# [13] = antibody concentration 81.7561 ng/mL
# [14] = antibody concentration 437.17 ng/mL
# [15] = antibody concentration 2337.65 ng/mL
# [16] = antibody concentration 12500 ng/mL
# [17] = antibody concentration 0.1 ng/mL
# [18] = antibody concentration 0.534724 ng/mL
# [19] = antibody concentration 2.8593 ng/mL
# [20] = antibody concentration 15.2894 ng/mL
binder,measurement,setting,value
4-99.5 (protein) chain 1: QVQLQESGPGLVKPSETLSLTCAVSGYSISSGYYWGWIRQPPGKGLEYIGYISGSSGSPYYNPSLKSRVTISKDTSKNQFSLKLSSATAADTAVYYCARRQVGIGFDYWGQGVLVTVSS chain 2: QAAPTQPPSVSGSPGQSVTISCTGTSSDIGYYNAVSWYQQHPGKAPKLMIYEVSKRPSGVSDRFSGSKSGNTASLTISGLQAEDEADYYCSSYAGSNTYIFGAGTRLTVL,fluorescence intensity,[1]; [13],25.2 MFI
same,fluorescence intensity,[1]; [14],27 MFI
same,fluorescence intensity,[1]; [15],29.5 MFI
same,fluorescence intensity,[1]; [16],36 MFI
same,fluorescence intensity,[2]; [17],19.5 MFI
same,fluorescence intensity,[2]; [18],18.5 MFI
same,fluorescence intensity,[2]; [19],18 MFI
same,fluorescence intensity,[2]; [20],18 MFI
same,fluorescence intensity,[2]; [13],19.2 MFI
same,fluorescence intensity,[2]; [14],18 MFI
same,fluorescence intensity,[2]; [15],19.5 MFI
same,fluorescence intensity,[2]; [16],31 MFI
same,fluorescence intensity,[3]; [17],18.5 MFI
same,fluorescence intensity,[3]; [18],19.2 MFI
same,fluorescence intensity,[3]; [19],19.5 MFI
same,fluorescence intensity,[3]; [20],19 MFI
same,fluorescence intensity,[3]; [13],18.5 MFI
same,fluorescence intensity,[3]; [14],20.5 MFI
same,fluorescence intensity,[3]; [15],23 MFI
same,fluorescence intensity,[3]; [16],31.8 MFI
same,fluorescence intensity,[4]; [17],15.5 MFI
same,fluorescence intensity,[4]; [18],16.5 MFI
same,fluorescence intensity,[4]; [19],16 MFI
same,fluorescence intensity,[4]; [20],18 MFI
same,fluorescence intensity,[4]; [13],17 MFI
same,fluorescence intensity,[4]; [14],17 MFI
same,fluorescence intensity,[4]; [15],18.5 MFI
same,fluorescence intensity,[4]; [16],31.5 MFI
same,fluorescence intensity,[5]; [17],23 MFI
same,fluorescence intensity,[5]; [18],23.5 MFI
same,fluorescence intensity,[5]; [19],25 MFI
same,fluorescence intensity,[5]; [20],23.5 MFI
same,fluorescence intensity,[5]; [13],23.5 MFI
same,fluorescence intensity,[5]; [14],24 MFI
same,fluorescence intensity,[5]; [15],25 MFI
same,fluorescence intensity,[5]; [16],27.2 MFI
same,fluorescence intensity,[6]; [17],13.5 MFI
same,fluorescence intensity,[6]; [18],13.5 MFI
same,fluorescence intensity,[6]; [19],13 MFI
same,fluorescence intensity,[6]; [20],14 MFI
same,fluorescence intensity,[6]; [13],14 MFI
same,fluorescence intensity,[6]; [14],13.5 MFI
same,fluorescence intensity,[6]; [15],15 MFI
same,fluorescence intensity,[6]; [16],19.2 MFI
same,fluorescence intensity,[7]; [17],11.5 MFI
same,fluorescence intensity,[7]; [18],11.5 MFI
same,fluorescence intensity,[7]; [19],12.5 MFI
same,fluorescence intensity,[7]; [20],12 MFI
same,fluorescence intensity,[7]; [13],12 MFI
same,fluorescence intensity,[7]; [14],12 MFI
same,fluorescence intensity,[7]; [15],13 MFI
same,fluorescence intensity,[7]; [16],17.5 MFI
same,fluorescence intensity,[8]; [17],15 MFI
same,fluorescence intensity,[8]; [18],16.5 MFI
same,fluorescence intensity,[8]; [19],16.2 MFI
same,fluorescence intensity,[8]; [20],15 MFI
same,fluorescence intensity,[8]; [13],16 MFI
same,fluorescence intensity,[8]; [14],16.5 MFI
same,fluorescence intensity,[8]; [15],20 MFI
same,fluorescence intensity,[8]; [16],47.2 MFI
same,fluorescence intensity,[9]; [17],24.5 MFI
same,fluorescence intensity,[9]; [18],25 MFI
same,fluorescence intensity,[9]; [19],25 MFI
same,fluorescence intensity,[9]; [20],25.5 MFI
same,fluorescence intensity,[9]; [13],26.5 MFI
same,fluorescence intensity,[9]; [14],26 MFI
same,fluorescence intensity,[9]; [15],27 MFI
same,fluorescence intensity,[9]; [16],30.5 MFI
same,fluorescence intensity,[10]; [17],11 MFI
same,fluorescence intensity,[10]; [18],11.5 MFI
same,fluorescence intensity,[10]; [19],12 MFI
same,fluorescence intensity,[10]; [20],11 MFI
same,fluorescence intensity,[10]; [13],11.5 MFI
same,fluorescence intensity,[10]; [14],10.5 MFI
same,fluorescence intensity,[10]; [15],12.5 MFI
same,fluorescence intensity,[10]; [16],16 MFI
same,fluorescence intensity,[11]; [17],23.5 MFI
same,fluorescence intensity,[11]; [18],24 MFI
same,fluorescence intensity,[11]; [19],25 MFI
same,fluorescence intensity,[11]; [20],24.5 MFI
same,fluorescence intensity,[11]; [13],24.5 MFI
same,fluorescence intensity,[11]; [14],24.5 MFI
same,fluorescence intensity,[11]; [15],26 MFI
same,fluorescence intensity,[11]; [16],34.8 MFI
same,fluorescence intensity,[12]; [17],17 MFI
same,fluorescence intensity,[12]; [18],16 MFI
same,fluorescence intensity,[12]; [19],16.5 MFI
same,fluorescence intensity,[12]; [20],16 MFI
same,fluorescence intensity,[12]; [13],16 MFI
same,fluorescence intensity,[12]; [14],16.5 MFI

# A portion from further up, for reference:
binder,measurement,setting,value
4-99.5 (protein) chain 1: QVQLQESGPGLVKPSETLSLTCAVSGYSISSGYYWGWIRQPPGKGLEYIGYISGSSGSPYYNPSLKSRVTISKDTSKNQFSLKLSSATAADTAVYYCARRQVGIGFDYWGQGVLVTVSS chain 2: QAAPTQPPSVSGSPGQSVTISCTGTSSDIGYYNAVSWYQQHPGKAPKLMIYEVSKRPSGVSDRFSGSKSGNTASLTISGLQAEDEADYYCSSYAGSNTYIFGAGTRLTVL,fluorescence intensity,[1]; [13],25.2 MFI
same,fluorescence intensity,[1]; [14],27 MFI
same,fluorescence intensity,[1]; [15],29.5 MFI
same,fluorescence intensity,[1]; [16],36 MFI
same,fluorescence intensity,[2]; [17],19.5 MFI
same,fluorescence intensity,[2]; [18],18.5 MFI
same,fluorescence intensity,[2]; [19],18 MFI
same,fluorescence intensity,[2]; [20],18 MFI
same,fluorescence intensity,[2]; [13],19.2 MFI
same,fluorescence intensity,[2]; [14],18 MFI
same,fluorescence intensity,[2]; [15],19.5 MFI
same,fluorescence intensity,[2]; [16],31 MFI
same,fluorescence intensity,[3]; [17],18.5 MFI
same,fluorescence intensity,[3]; [18],19.2 MFI
same,fluorescence intensity,[3]; [19],19.5 MFI
same,fluorescence intensity,[3]; [20],19 MFI
same,fluorescence intensity,[3]; [13],18.5 MFI
same,fluorescence intensity,[3]; [14],20.5 MFI
same,fluorescence intensity,[3]; [15],23 MFI
same,fluorescence intensity,[3]; [16],31.8 MFI
